Measurements published in PubChem BioAssay AID328 (DTP/NCI, 2004).
The list is a part of this screen's results and no random one: it is rich in T/C values a quarter to a half above the control, in often repeated tests (any T/C) and in doses without a T/C. Other doses and runs of a compound stand elsewhere. T/C is the treated group as % of the vehicle group. Some entries give survivors of the animals treated and no T/C: the source holds a T/C of zero for them, seemingly a mark for toxic or unscored doses. Some survivor counts are full or nearly so, which does not show that the dose was tolerated: the source hardly ever lists a survival T/C far under the control, and the zero likely stands for such cases as well. Survivors were counted at the toxicity check, usually on the fifth day, unless a day is given; later deaths do not show. Schedule codes are those of the source, read here as Q, the interval in days (D) or hours (H), X, the number of doses. Some entries were tested several times; their values stand side by side, smallest first. Some molecules as drawn cover several salts, stereoisomers or complexes of the source; a dose is that of the sample tested. Where survival is the endpoint, the PubChem record calls one and a half times the control and up active, and a quarter to a half above the control has no call in these data; cut-offs in other NCI protocols can differ. Some schedule codes hold Z or #, which are not explained here. Some T/C values are followed by the survivors on the day toxicity was checked, most often the fifth; where none is given, no animal had died by that day.

System: BDF1 mice, P388 leukemia ip, median survival T/C
Assay: NCI In Vivo Anticancer Drug Screen. Data for tumor model P388 Leukemia (intraperitoneal) in B6D2F1 (BDF1) mice
Settings: T/C endpoint: median survival time, higher T/C = longer survival
Summary of the method: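 Mice carrying the transplantable tumour receive compound or vehicle. Survival is followed in each arm, and the treated measure is divided by the vehicle measure.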

[1] = dose: 50.0 mg/kg/injection, schedule: Q01DX009 (ip), vehicle: saline with Tween-80
[2] = dose: 100.0 mg/kg/injection, schedule: Q01DX009 (ip), vehicle: saline with Tween-80
[3] = dose: 200.0 mg/kg/injection, schedule: Q01DX009 (ip), vehicle: saline with Tween-80
[4] = dose: 200.0 mg/kg/injection, schedule: Q01DX009 (ip), vehicle: saline
[5] = dose: 12.5 mg/kg/injection, schedule: Q01DX009 (ip), vehicle: saline
[6] = dose: 25.0 mg/kg/injection, schedule: Q01DX009 (ip), vehicle: saline
[7] = dose: 400.0 mg/kg/injection, schedule: Q01DX009 (ip), vehicle: saline with Tween-80
[8] = dose: 400.0 mg/kg/injection, schedule: Q04DX003 (ip), vehicle: saline with Tween-80
[9] = dose: 25.0 mg/kg/injection, schedule: Q01DX009 (ip), vehicle: saline with Tween-80
[10] = dose: 400.0 mg/kg/injection, schedule: Q01DX009 (ip), vehicle: saline
[11] = dose: 12.5 mg/kg/injection, schedule: Q01DX009 (ip), vehicle: Klucel (hydroxypropylcellulose) (HPC)
[12] = dose: 6.25 mg/kg/injection, schedule: Q01DX009 (ip), vehicle: saline

With N=C(N)c1ccc(C#Cc2ccc(C(=N)N)cc2)cc1 the survivor count [1] was 0 of 6, the survivor count [2] was 0 of 6 and the survivor count [3] was 0 of 6.
O=C(O)C1CCCC2C(O)CCC(=O)C12 (stereo not given) was tested, and the survivor count [1] was 0 of 6.
CC(CCCSC(=N)N)SC(=N)N (stereo not given) was tested, and the survivor count [4] was 2 of 6.
With CCOC(=O)C1(C)C=C(Nc2ccc(OC)cc2)C(=O)N1c1ccc(OC)cc1 (stereo not given) the survivor count [2] was 2 of 6 and the survivor count [3] was 0 of 6.
In the case of CN(C)C(c1ccccc1)C(CBr)C(=O)c1ccc(Br)cc1 (stereo not given), the T/C [5] was 125 % of control, the T/C [6] was 125 % of control and the survivor count (dose: 55.0 mg/kg/injection, schedule: Q01DX009 (ip), vehicle: saline) was 0 of 6. The survivor count (dose: 85.0 mg/kg/injection, schedule: Q01DX009 (ip), vehicle: saline) was 1 of 6, the survivor count (dose: 110.0 mg/kg/injection, schedule: Q04DX003 (ip), vehicle: saline) was 0 of 6 and the survivor count (dose: 125.0 mg/kg/injection, schedule: Q01DX009 (ip), vehicle: saline) was 0 of 6.
CC(=O)/C=N/Nc1ccccc1 was tested, and the T/C (dose: 100.0 mg/kg/injection, schedule: Q04DX003 (ip), vehicle: Klucel (hydroxypropylcellulose) (HPC)) was 131 % of control.
For Cc1cc(NC(=O)c2ccc(C(=O)Nc3ccc(C4=NCCN4)c(C)c3)cc2)ccc1C1=NCCN1, the survivor count [7] was 4 of 6.
With Nc1ccccc1SC1=C(Cl)C(=O)c2ccccc2C1=O the survivor count [1] was 5 of 6, the survivor count [2] was 4 of 6 and the survivor count [3] was 0 of 6.
For CN(C)c1ccc(C(O)C(N)=O)cc1 (stereo not given), the survivor count [5] was 5 of 6.
In the case of CC1(C)O[C@@H]2C[C@H]3[C@@H]4CCC5=CC(=O)C=C[C@]5(C)[C@@]4(F)[C@@H](O)C[C@]3(C)[C@]2(C(=O)CO)O1, the survivor count [2] was 6 of 6, the survivor count [3] was 4 of 6 and the survivor count [8] was 6 of 6.
CCOC(=O)N/N=C\c1cc(OC)c(OC)c(OC)c1 was tested, and the survivor count [9] was 6 of 6 and the survivor count [2] was 6 of 6.
Cn1ccc(=O)c2cc([N+](=O)[O-])ccc21 was tested, and the survivor count (dose: 200.0 mg/kg/injection, schedule: Q01DX009 (ip), vehicle: water) was 6 of 6 and the survivor count (dose: 400.0 mg/kg/injection, schedule: Q01DX009 (ip), vehicle: water) was 2 of 6.
With NCCNCC[OH2+].NCCNCC[OH2+].O=[N+]([O-])[O-].[Ni+2] the survivor count (dose: 50.0 mg/kg/injection, schedule: Q01DX009 (ip), vehicle: saline) was 4 of 6, the survivor count (dose: 100.0 mg/kg/injection, schedule: Q01DX009 (ip), vehicle: saline) was 1 of 6 and the survivor count [4] was 0 of 6.
CC1N/C(=C/c2ccccc2)C(=O)O1 (stereo not given) was tested, and the T/C [9] was 127 % of control and the survivor count [3] was 3 of 6.
For OC1CCCC12CC2 (stereo not given), the survivor count [3] was 4 of 6.
For Cc1c(C)c([N+](=O)[O-])c(Br)c(C)c1[N+](=O)[O-], the T/C (dose: 200.0 mg/kg/injection, schedule: Q04DX003 (ip), vehicle: saline with Tween-80) was 140 % of control.
For Cc1cc(-c2ccccc2)[n+](C)n1C, the survivor count [1] was 2 of 6.
CC(=O)OC1C=COC(C)C1OC(C)=O (stereo not given) was tested, and the survivor count [4] was 5 of 6 and the survivor count [10] was 3 of 6.
With O=C(NO)c1ccncc1 the T/C [4] was 136 % of control, the T/C (dose: 200.0 mg/kg/injection, schedule: Q01DX010 (ip), vehicle: water) was 130 % of control and the T/C (dose: 300.0 mg/kg/injection, schedule: Q01DX009 (ip), vehicle: saline) was 131 % of control. The T/C (dose: 335.0 mg/kg/injection, schedule: Q01DX010 (ip), vehicle: water) was 136 % of control, the T/C [10] was 140 % of control [5 of 6 alive] and the T/C (dose: 400.0 mg/kg/injection, schedule: Q01DX010 (ip), vehicle: water) was 136 and 145 % of control. The T/C (dose: 400.0 mg/kg/injection, schedule: Q#A X020 (ip), vehicle: water) was 136 % of control, the T/C (dose: 500.0 mg/kg/injection, schedule: Q01DX010 (ip), vehicle: water) was 140 % of control and the T/C (dose: 500.0 mg/kg/injection, schedule: Q02DX005 (ip), vehicle: water) was 136 % of control. The T/C (dose: 600.0 mg/kg/injection, schedule: Q01DX010 (ip), vehicle: water) was 140 % of control and the survivor count (dose: 800.0 mg/kg/injection, schedule: Q01DX010 (ip), vehicle: water) was 3 of 6 and 6 of 6.
O=C(CCl)NCc1cnccn1 was tested, and the survivor count (dose: 300.0 mg/kg/injection, schedule: Q04DX003 (ip), vehicle: saline) was 1 of 6.
For COc1c(C#N)c2c(c(OC)c1OC)-c1ccc(OC)c(=O)cc1[C@@H](NC(C)=O)CC2, the T/C [11] was 137 % of control, the T/C (dose: 25.0 mg/kg/injection, schedule: Q01DX009 (ip), vehicle: Klucel (hydroxypropylcellulose) (HPC)) was 144 % of control and the survivor count (dose: 50.0 mg/kg/injection, schedule: Q01DX009 (ip), vehicle: Klucel (hydroxypropylcellulose) (HPC)) was 6 of 6. For the same compound, the survivor count (dose: 100.0 mg/kg/injection, schedule: Q01DX009 (ip), vehicle: Klucel (hydroxypropylcellulose) (HPC)) was 0 of 6.
In the case of COc1ccc(C(=O)C(O)c2ccccc2)cc1 (stereo not given), the survivor count (dose: 400.0 mg/kg/injection, schedule: Q04DX003 (ip), vehicle: other) was 6 of 6.
For CC(C)OC(CCC#N)c1ccc(Cl)cc1 (stereo not given), the survivor count (dose: 200.0 mg/kg/injection, schedule: Q04DX003 (ip), vehicle: other) was 6 of 6.
With C#CC(C)OCC1CO1 (stereo not given) the survivor count [4] was 3 of 6.
CC[C@@H](c1ccc(O)cc1)[C@@H](CC)c1ccc(O)cc1 was tested, and the survivor count [4] was 4 of 6 and the survivor count (dose: 400.0 mg/kg/injection, schedule: Q04DX003 (ip), vehicle: alcohol) was 1 of 6.
In the case of ClC1=C(Cl)[C@@]2(Cl)[C@H]3[C@H]4C[C@H]([C@@H]5O[C@H]45)[C@H]3[C@@]1(Cl)C2(Cl)Cl, the survivor count [11] was 6 of 6.
For CCCCOB=O, the survivor count [8] was 3 of 6.
In the case of CS(=O)(=O)OCCN1CCC2(CC1)SSC1(CCN(CCOS(C)(=O)=O)CC1)S2, the T/C (dose: 5.0 mg/kg/injection, schedule: Q01DX009 (ip), vehicle: saline) was 144 % of control, the T/C [12] was 136 % of control [5 of 6 alive] and the T/C (dose: 12.5 mg/kg/injection, schedule: Q04DX003 (ip), vehicle: saline) was 130 % of control. The survivor count (dose: 20.0 mg/kg/injection, schedule: Q01DX009 (ip), vehicle: saline) was 1 of 6, the survivor count (dose: 21.0 mg/kg/injection, schedule: Q04DX003 (ip), vehicle: saline) was 3 of 6 and the survivor count [6] was 0 of 6. The survivor count (dose: 25.0 mg/kg/injection, schedule: Q04DX003 (ip), vehicle: saline) was 6 of 6 and the survivor count (dose: 50.0 mg/kg/injection, schedule: Q04DX003 (ip), vehicle: saline) was 0 of 6.
For CCCC[N+](CCCC)=c1cc(-c2ccc(Cl)cc2)ss1, the survivor count (dose: 50.0 mg/kg/injection, schedule: Q01DX009 (ip), vehicle: water) was 2 of 6, the survivor count (dose: 200.0 mg/kg/injection, schedule: Q04DX003 (ip), vehicle: water) was 2 of 6 and the survivor count (dose: 300.0 mg/kg/injection, schedule: Q04DX003 (ip), vehicle: water) was 1 of 6.
In the case of CS/C(=C\c1ccc2cc(C)ccc2[n+]1C)N1CCOCC1, the T/C (dose: 3.13 mg/kg/injection, schedule: Q01DX009 (ip), vehicle: saline) was 130 % of control, the T/C [12] was 141 and 149 % of control and the survivor count [5] was 0 of 6 and 1 of 6. For the same compound, the survivor count [1] was 0 of 6, the survivor count [2] was 0 of 6 and the survivor count [3] was 0 of 6.
For N=C(N)c1ccc(-c2ccc(-c3ccc(C(=N)N)cc3)o2)cc1, the T/C (dose: 12.5 mg/kg/injection, schedule: Q01DX009 (ip), vehicle: saline with Tween-80) was 125 % of control, the survivor count [9] was 6 of 6 and the survivor count [1] was 0 of 6. For the same compound, the survivor count [2] was 0 of 6 and the survivor count [3] was 0 of 6.
O=S(=O)(Sc1ccc(N(CCCl)CCCl)cc1)c1ccc(N(CCCl)CCCl)cc1 was tested, and the T/C (dose: 300.0 mg/kg/injection, schedule: Q01DX009 (ip), vehicle: saline with Tween-80) was 135 % of control and the T/C [7] was 140 % of control [5 of 6 alive].
In the case of CCOC(=O)c1cnn(C(N)=O)c1N, the survivor count [2] was 6 of 6.
With N#CC(C#N)=c1ccc(=C(C#N)C#N)cc1 the survivor count [2] was 2 of 6.
